# Publication PMC7026009
# Amino acid sequences for entries named in this document (tags omitted). Residues count along the entry.
# UniProt P05622, residues 32-1098: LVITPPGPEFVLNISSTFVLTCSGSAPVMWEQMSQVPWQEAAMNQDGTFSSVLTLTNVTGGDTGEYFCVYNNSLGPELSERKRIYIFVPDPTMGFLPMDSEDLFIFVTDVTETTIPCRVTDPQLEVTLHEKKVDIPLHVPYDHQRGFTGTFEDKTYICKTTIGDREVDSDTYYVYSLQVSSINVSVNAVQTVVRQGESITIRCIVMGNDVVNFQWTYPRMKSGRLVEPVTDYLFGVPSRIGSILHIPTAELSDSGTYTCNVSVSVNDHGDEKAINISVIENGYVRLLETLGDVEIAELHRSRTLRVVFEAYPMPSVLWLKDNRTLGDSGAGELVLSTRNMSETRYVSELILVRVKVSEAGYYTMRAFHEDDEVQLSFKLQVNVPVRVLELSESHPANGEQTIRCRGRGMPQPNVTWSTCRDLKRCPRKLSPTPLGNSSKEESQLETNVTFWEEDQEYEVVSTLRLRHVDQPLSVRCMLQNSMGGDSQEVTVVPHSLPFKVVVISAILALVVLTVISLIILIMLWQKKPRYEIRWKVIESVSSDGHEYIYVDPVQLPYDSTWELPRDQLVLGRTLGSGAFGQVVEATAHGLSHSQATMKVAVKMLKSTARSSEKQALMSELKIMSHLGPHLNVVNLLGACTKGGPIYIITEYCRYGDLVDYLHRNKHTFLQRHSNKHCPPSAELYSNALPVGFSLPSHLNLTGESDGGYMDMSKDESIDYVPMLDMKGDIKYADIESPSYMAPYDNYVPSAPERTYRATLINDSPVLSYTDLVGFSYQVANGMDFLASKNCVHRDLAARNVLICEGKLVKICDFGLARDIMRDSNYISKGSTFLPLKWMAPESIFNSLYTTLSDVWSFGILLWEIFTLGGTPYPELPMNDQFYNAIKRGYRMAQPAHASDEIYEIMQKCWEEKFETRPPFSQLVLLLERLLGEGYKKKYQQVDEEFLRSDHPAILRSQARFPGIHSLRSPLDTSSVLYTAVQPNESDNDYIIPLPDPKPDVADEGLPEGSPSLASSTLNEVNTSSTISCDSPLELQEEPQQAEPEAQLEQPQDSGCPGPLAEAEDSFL
# These are yes or no findings as the source states them, for the method shown. In cells and extracts the contact can be indirect. Some results given as binding are weak or reduced against the parent protein; the word gives no strength. For some assays here: Tags and fused reporters may be left off the sequences shown.
# Tests used:
# EphA4-GFP = EphA4-GFP (UniProt Q03137); experiment: co-IP; HEK293T cells co-transfected with PDGFRβ-Flag, FGFR1-HA, EphA4-GFP and FRS2α-myc; 150 μg of lysate; IP with anti-PDGFRβ, anti-EphA4 or anti-FRS2α, immunoblot
# FRS2α-myc = target: T1, FRS2α-myc (UniProt Q8WU20); experiment: as above
# T1 sequence: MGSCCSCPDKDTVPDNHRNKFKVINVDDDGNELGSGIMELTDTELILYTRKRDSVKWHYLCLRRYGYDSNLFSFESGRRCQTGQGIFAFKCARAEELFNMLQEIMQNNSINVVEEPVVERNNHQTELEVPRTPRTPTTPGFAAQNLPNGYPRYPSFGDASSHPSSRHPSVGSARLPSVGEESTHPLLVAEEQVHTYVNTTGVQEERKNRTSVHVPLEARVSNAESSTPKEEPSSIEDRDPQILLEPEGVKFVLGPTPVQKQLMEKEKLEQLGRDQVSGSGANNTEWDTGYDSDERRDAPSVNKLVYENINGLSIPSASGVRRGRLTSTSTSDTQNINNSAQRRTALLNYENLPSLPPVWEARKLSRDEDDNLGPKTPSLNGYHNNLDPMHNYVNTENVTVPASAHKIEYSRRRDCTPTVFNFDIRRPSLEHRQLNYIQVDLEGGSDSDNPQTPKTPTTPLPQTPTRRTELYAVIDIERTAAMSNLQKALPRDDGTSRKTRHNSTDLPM
# PDGFRβ-Flag = PDGFRβ-Flag (UniProt P09619); experiment: as above
# [1] = target: ephrin receptor A4 (EphA4), endogenous in mouse embryonic neural progenitor cells (mouse (endogenous in embryonic NPCs)) (UniProt Q03137); experiment: co-IP; lysates of mouse embryonic NPCs starved 5 h and stimulated with PDGF-BB (20 ng/ml; 15 min, the peak of ligand stimulation); control cells or cells transduced with the dominant-negative EphA4 retrovirus; IP with anti-EphA4 or anti-PDGFRβ on protein A agarose, immunoblot
# [2] = target: platelet-derived growth factor receptor β (PDGFRβ), endogenous in mouse embryonic neural progenitor cells (mouse (endogenous in embryonic NPCs)) (UniProt P05622); experiment: co-IP; lysates of mouse embryonic NPCs without PDGF-BB stimulation; IP with anti-EphA4 or anti-PDGFRβ on protein A agarose, immunoblot
# [3] = target: platelet-derived growth factor receptor β (PDGFRβ), endogenous in mouse embryonic neural progenitor cells (mouse (endogenous in embryonic NPCs)) (UniProt P05622); experiment: co-IP; lysates of mouse embryonic NPCs starved 5 h and stimulated with PDGF-BB (20 ng/ml; 15 min, the peak of ligand stimulation); control cells or cells transduced with the dominant-negative EphA4 retrovirus; IP with anti-EphA4 or anti-PDGFRβ on protein A agarose, immunoblot
Substance,binding (EphA4-GFP),binding (PDGFRβ-Flag),also measured
FGFR1-HA (from UniProt P11362 22-822) (receptor),binds,binds,binding (FRS2α-myc): binds
"platelet-derived growth factor receptor β (PDGFRβ), endogenous in mouse embryonic neural progenitor cells (from UniProt P05622 32-1098)",,,binding [1]: binds
"ephrin receptor A4 (EphA4), endogenous in mouse embryonic neural progenitor cells (from UniProt Q03137 20-986)",,,binding [2]: binds weakly; binding [3]: binds
PDGFRβ-Flag (from UniProt P09619 33-1106) (receptor),binds,,
EphA4-GFP (from UniProt Q03137 20-986) (receptor),,binds,
